Measured values from PubChem BioAssay AID1347076 (National Center for Advancing Translational Sciences (NCATS), 2019).
The whole screen tested about 400,000 compounds, of which about 13,000 (3.2%) were called active. The inconclusive results got no clear call from the source; some entries with a clear call stand among them for comparison. Calls follow the shape of the dose curve; as a rule, active = well fitted cell-killing curve with a large enough effect; inconclusive = small, poorly fitted or top-dose-only effect, or effect the other way; inactive = flat fitted curve, though single readings scatter. Where the call is inconclusive, the potency comes from a doubtful curve fit.

Assay: qHTS assay for MDR1-selective chemotherapeutics: Primary screen using the drug-selected MDR subline cells KB-V1; also: nearly all actives have a fitted effect of over 60% in size
Conditions: KB-V1 MDR cells viability, CellTiter-Glo, 72 h; activity change, negative = cytotoxicity: at 46.1 µM (top of the series)
Method in brief: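 Readout: CellTiter-Glo luminescence, 10 min after addition. Cells: KB-V1 MDR subline, 72 h at 37 degrees C with compound. Analysis: corrected, normalized data fitted to concentration-effect curves.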
% is scaled to controls: 0 for no effect and ±100 for the full control effect; potency is read from the fitted curve at half-maximal effect.

Compound	Potency	activity change, negative = cytotoxicity
COc1cc(/C=C/C(=O)Nc2ccncc2)cc(OC)c1OC	inactive	
Nc1nc(Nc2cccc(Cl)c2)nc(NCc2ccco2)c1[N+](=O)[O-]	inconclusive: 8.2 µM [cytotoxic, partial curve, poor fit]	
Cc1cc(OCC(=O)NNC(=O)c2cccnc2)cc(C)c1Cl	inactive	
CCCN1C(=O)c2cc(C(=O)NCc3ccc(OC)cc3)ccc2C1O (stereo unspecified)		inconclusive: 0%
COC(=O)c1c(C)cccc1C1CN=NC12Cc1ccccc1C2=O (stereo unspecified)	active: 20.6 µM	
CCN(CC(=O)Nc1ccc2c(c1)OCO2)S(=O)(=O)c1ccccc1	inconclusive: 18.4 µM [cytotoxic, partial curve, poor fit]	
Cc1ccccc1C(=O)NN1C(=O)CSC1=S	inactive	
O=CNc1ccccc1	inactive	
CCCCn1nnnc1C(CC)N1CCN(C/C=C/c2ccccc2)CC1 (stereo unspecified)	inconclusive: 29.1 µM [cytotoxic, single point]	
O=C1c2ccccc2C(=O)N1CCSc1n[nH]c(=S)s1	inconclusive: 18.4 µM [rising, partial curve]	
Cc1ccc(-n2cc(CN3CCN(c4ccccn4)CC3)c(-c3ccc(F)cc3)n2)cc1	inconclusive: 32.6 µM [cytotoxic, partial curve, poor fit]	
COc1cc(C(=O)Nc2cc3c(cc2C)n(C)c(=O)c(=O)n3C)cc(OC)c1OC	inactive	
COc1ccc(C(=O)N2[C@@H](C(C)C)COc3cc(Br)ccc3S2(=O)=O)cc1	inconclusive: 29.1 µM [cytotoxic, single point]	
CCOc1ccc(C(=O)CN2CCN(S(=O)(=O)c3ccc(F)cc3)CC2)cc1	inconclusive: 29.1 µM [cytotoxic, single point]	
N#Cc1ccc(C(=O)NC(=S)N2CCOCC2)cc1	inactive	
Cc1ccc(CN2CCN(/N=C\C(Br)=C\c3ccccc3)CC2)cc1	inconclusive: 29.1 µM [cytotoxic, single point]	
Cc1ccc(NC(=O)c2sc3nc(-c4cc5ccccc5oc4=O)[nH]c(=O)c3c2C)c(C)c1	inconclusive: 23.1 µM [rising, single point]	
O=C(CSc1ccc(-c2ccco2)nn1)Nc1ccccc1	active: 18.4 µM	
OCCC1CN(Cc2cnc(-c3ccc(Cl)cc3)nc2)CCN1C1CCCCC1 (stereo unspecified)	inconclusive: 3.26 µM [cytotoxic, full curve]	
Cc1cc(=O)oc2c3c(cc(OCC(=O)NCc4ccccn4)c12)OC(C)(C)CC3	inconclusive: 14.6 µM [cytotoxic, single point]	
CC(C)C(=O)N1CCN(c2nc(-c3ccccc3)c3c(c2C#N)CCCC3)CC1	inconclusive: 4.11 µM [cytotoxic, partial curve, poor fit]	
O=P(NCc1ccccc1)(OCc1ccccc1)OCc1ccccc1	active: 9.2 µM	
CCOC(=O)C1CCCN(c2ncnc3c2cnn3-c2ccc(Cl)cc2)C1 (stereo unspecified)	active: 13 µM	
Cc1ccc(C)c(NC(=O)CN(C)C(=O)c2ccc(-c3cccc(C(F)(F)F)c3)o2)c1	active: 18.4 µM	

A different layout for some results above:
Nc1nc(Nc2cccc(Cl)c2)nc(NCc2ccco2)c1[N+](=O)[O-]
  Potency: inconclusive: 8.2 µM [cytotoxic, partial curve, poor fit]
Cc1cc(OCC(=O)NNC(=O)c2cccnc2)cc(C)c1Cl
  Potency: inactive
CCCN1C(=O)c2cc(C(=O)NCc3ccc(OC)cc3)ccc2C1O (stereo unspecified)
  activity change, negative = cytotoxicity: inconclusive: 0%

Going on with the list.

Compound	Potency	activity change, negative = cytotoxicity
CC(C)(C)NC(=O)NC(=O)CN1C(=O)NC(c2ccccc2)(c2ccccc2)C1=O	inactive	
COc1cc2c(cc1OC)C(C)=NCC2	inactive	
COCCN1C=C(C(=O)OC)C(c2ccccc2C(F)(F)F)C(C(=O)OC)=C1	inactive	
Cc1cc(N2CCCC(C(=O)Nc3ccc4c(c3)CCC4)C2)n2ncnc2n1 (stereo unspecified)	active: 4.61 µM	
NC(=S)N/N=C1\CC(c2ccc3c(c2)OCCCO3)Oc2ccc(F)cc21 (stereo unspecified)	inconclusive: 20.6 µM [cytotoxic, single point]	
COC(=O)C(C(=O)Nc1ccc(OC)cc1)C1CCCCCC1 (stereo unspecified)	inconclusive: 29.1 µM [cytotoxic, single point]	
Cc1ccc(Nc2ncnc3c2nnn3Cc2ccccc2)cc1	inactive	
CCOC(=O)c1cccc(NC(=O)COc2nsnc2N2CCOCC2)c1	inconclusive: 13 µM [cytotoxic, partial curve, poor fit]	
COc1ccccc1-n1cnnc1SCC(=O)NCC1CCCO1 (stereo unspecified)	inactive	
CCOC1=C2CN(S(=O)(=O)c3ccc(C)cc3)C(c3cccc(Cl)c3)CC2N(S(=O)(=O)c2ccc(C)cc2)C(c2ccncc2)C1 (stereo unspecified)	inconclusive: 5.17 µM [cytotoxic, full curve]	
COc1ccc2cc(Br)ccc2c1CC(=O)NCCCN1CCOCC1	inconclusive: 29.1 µM [cytotoxic, single point]	
O=C(O)c1cccc2c1C(=O)c1ccc(Cl)cc1S2(=O)=O	inactive	
O=c1cc(CN2CCN(c3ccccc3)CC2)nc2scc(-c3ccccc3)n12	inconclusive: 18.4 µM [cytotoxic, partial curve, poor fit]	
CSc1ccccc1OCc1cc(C(=O)N2CCNC(=O)C2)no1	inconclusive: 7.31 µM [rising, partial curve, poor fit]	
Cc1cc(C)c(C#N)c(SCC(=O)Nc2nonc2N)n1	inconclusive: 18.4 µM [cytotoxic, single point]	
O=C(Nc1cccc(C(F)(F)F)c1)C1CCCCC1	inactive	
CCOc1ccc(-n2c(SCc3ccc(C(=O)OC)o3)nc3c([nH]c4ccccc43)c2=O)cc1	inconclusive: 32.6 µM [rising, single point]	
O=C(Nc1ccc(-c2cn3ccsc3n2)cc1)C1COc2ccccc2O1 (stereo unspecified)	inconclusive: 29.1 µM [cytotoxic, single point]	
O=C(O)C(=Cc1cc2c(cc1[N+](=O)[O-])OCO2)c1cc2c(cc1Br)OCO2	inactive	
O=C(Nc1nccs1)c1cc(-c2ccccc2)nc2ccccc12	inconclusive: 29.1 µM [cytotoxic, single point]	
O=C1NC[C@@H](CCCCN2CCN(CC3CCCCC3)C(=O)C2=O)N(Cc2ccccc2)C1=O	inconclusive: 29.1 µM [rising, single point]	
O=C(COC(=O)Cc1ccccc1F)Nc1ccc(F)cc1F	inconclusive: 29.1 µM [rising, single point]	
O=C(Nc1ccc(Cl)cc1)N(C1=NCCC1)c1ccc(OC(F)F)cc1	inconclusive: 18.4 µM [cytotoxic, single point]	
COCCNC(=O)c1onc(CSc2ccccc2C)c1C(=O)O	inconclusive: 18.4 µM [rising, single point]	

Compound	Potency	activity change, negative = cytotoxicity
Nc1nc(=S)c2ncn(C3OC(CO)C(O)C3O)c2[nH]1 (stereo unspecified)	active: 1.03 µM	
CN(/N=C/c1cccnc1)c1cnc2ccccc2n1	inconclusive: 5.8 µM [cytotoxic, partial curve, poor fit]	
CCOc1ccc(Oc2ccc(S(=O)(=O)N3CCOCC3)cc2NC(=O)C2=COCCO2)cc1	inconclusive: 7.31 µM [cytotoxic, partial curve, poor fit]	
Cc1cccc(OC(C)C(=O)Nc2ccccc2C(=O)N2CCCCC2)c1 (stereo unspecified)	inactive	
O=C(CCNS(=O)(=O)c1ccc(Cl)cc1)N1CCN(Cc2ccccc2)CC1	inconclusive: 10.3 µM [cytotoxic, partial curve]	
COC(=O)c1ccc2nc(-c3ccc(C)cc3)c(Cc3ccc(OC)cc3C)n2c1	inactive	
O=C(Cn1nc(-c2ccccc2F)ccc1=O)Nc1ccc(S(=O)(=O)N2CCCCCC2)cc1	active: 13 µM	
O=C(NCC1CC1)c1cc([N+](=O)[O-])cc([N+](=O)[O-])c1		inconclusive: 36.3%
COc1ccc([N+](=O)[O-])cc1NCc1ccccc1	inconclusive: 23.1 µM [cytotoxic, single point]	
CCn1cc(CN2CCC(C(=O)Nc3ccc(Oc4ccccc4F)cc3)CC2)c(C)n1	inconclusive: 20.6 µM [cytotoxic, partial curve]	
CC1CCCC(NC(=O)COC(=O)c2ccc(Cl)nc2)C1C (stereo unspecified)	inconclusive: 20.6 µM [rising, single point]	
COc1ccc(-n2ccnc2SCC(=O)Nc2ccc(OC)cc2OC)cc1	inconclusive: 13 µM [cytotoxic, partial curve]	
CC(C)OC(=O)N(C)C[C@H]1OCc2cnnn2CCCC(=O)N([C@@H](C)CO)C[C@H]1C	inconclusive: 23.1 µM [rising, single point]	
CCCCCCN1N=C(C)C(C(=O)c2ccc(Cl)cc2)C1=O (stereo unspecified)	inconclusive: 13 µM [cytotoxic, partial curve, poor fit]	
Cc1ccc(N(CC(=O)NC(C)c2ccccc2)S(=O)(=O)c2c(C)noc2C)cc1 (stereo unspecified)	inconclusive: 5.8 µM [cytotoxic, full curve, poor fit]	
COCCNC(=S)N/N=C/c1ccc(-c2ccc([N+](=O)[O-])cc2)o1	inconclusive: 0.731 µM [cytotoxic, full curve, poor fit]	
C[C@H]1CN([C@@H](C)CO)C(=O)CCCn2nncc2CO[C@@H]1CN(C)Cc1cccc(C(=O)O)c1	inactive	
C[n+]1ccc(C(=O)Nc2ccccc2Cl)cc1	inactive	
CCOc1ncccc1C(=O)Nc1ccc(Cl)c(S(=O)(=O)N2CCCC2)c1	inconclusive: 4.11 µM [cytotoxic, full curve]	
COc1ccc([C@]2(C(C)C)ON(c3ccccc3C(F)(F)F)C2=O)cc1	inactive	
CCOC(=O)C1CCCN(C(=O)c2cccc(NC(=O)C(CC)CC)c2)C1 (stereo unspecified)	inconclusive: 11.6 µM [cytotoxic, partial curve, poor fit]	
CN(C)c1ccc(/C=C/c2ccnc3ccccc23)cc1Cl	inconclusive: 20.6 µM [cytotoxic, single point]	
Cc1cc(OCC(=O)Nc2sc3c(c2C(N)=O)CCCC3)ccc1C(C)C	inconclusive: 20.6 µM [rising, single point]	
